Reference: PMC7732837
Results are given in words; binding and its absence hold for the method and conditions named. In cells and extracts the contact can be indirect. Some results given as binding are weak or reduced against the parent protein; the word gives no strength. Where a sequence is shown, tags or fusion partners need not be part of it. Values belong to the molecule of their own block, whether it stands above or below them.

Amino acid sequences for entries named in this document (tags omitted).
UniProt Q16665: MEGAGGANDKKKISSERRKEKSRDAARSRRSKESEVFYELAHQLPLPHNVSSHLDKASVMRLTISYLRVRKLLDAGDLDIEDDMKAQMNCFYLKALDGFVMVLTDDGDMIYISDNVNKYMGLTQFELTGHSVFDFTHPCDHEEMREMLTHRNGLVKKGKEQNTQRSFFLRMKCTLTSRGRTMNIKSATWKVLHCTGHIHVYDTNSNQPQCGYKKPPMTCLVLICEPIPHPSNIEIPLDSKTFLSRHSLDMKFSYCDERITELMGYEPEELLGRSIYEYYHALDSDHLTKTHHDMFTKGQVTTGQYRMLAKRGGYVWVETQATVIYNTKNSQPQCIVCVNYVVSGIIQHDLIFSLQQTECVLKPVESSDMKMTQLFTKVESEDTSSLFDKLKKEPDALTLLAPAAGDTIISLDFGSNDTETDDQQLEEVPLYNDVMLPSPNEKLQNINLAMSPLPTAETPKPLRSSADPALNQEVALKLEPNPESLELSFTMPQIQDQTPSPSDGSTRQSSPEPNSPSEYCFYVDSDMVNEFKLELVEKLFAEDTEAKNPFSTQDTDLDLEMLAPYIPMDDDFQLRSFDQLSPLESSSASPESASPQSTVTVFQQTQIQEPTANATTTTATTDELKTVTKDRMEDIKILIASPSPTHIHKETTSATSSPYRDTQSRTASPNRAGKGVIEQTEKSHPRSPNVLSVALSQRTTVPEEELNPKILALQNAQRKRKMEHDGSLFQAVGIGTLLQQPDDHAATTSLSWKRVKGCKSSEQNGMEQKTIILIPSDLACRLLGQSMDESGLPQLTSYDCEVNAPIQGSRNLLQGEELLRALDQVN

Columns and labels:
GST-BTG3, full length = molecular target: T1, GST-BTG3, full length (UniProt Q14201); test: pull-down; recombinant GST-BTG3 proteins (full length, N-terminal or C-terminal domain) as bait with 293T lysates expressing HA-HIF-1α; only the target purified
T1 sequence: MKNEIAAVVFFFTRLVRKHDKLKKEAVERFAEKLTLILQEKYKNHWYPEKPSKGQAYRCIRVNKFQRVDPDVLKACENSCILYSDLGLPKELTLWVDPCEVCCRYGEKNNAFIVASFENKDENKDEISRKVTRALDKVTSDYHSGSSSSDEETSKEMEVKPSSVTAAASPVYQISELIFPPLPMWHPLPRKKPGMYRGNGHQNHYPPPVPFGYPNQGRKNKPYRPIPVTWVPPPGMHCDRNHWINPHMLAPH

[1] = molecular target: HA-tagged HIF-1α, full length (human) (UniProt Q16665); test: co-IP; 293T cells co-transfected with HA-HIF-1α (full length or mutant) and myc-BTG3; lysates in CSK buffer (10 mM PIPES pH 7.0, 100 mM NaCl, 0.1% Triton-X-100) immunoprecipitated with anti-HA or anti-myc and protein G resin, 1.5 h at 4 °C

- binding (GST-BTG3, full length): binds
Molecule: HA-tagged HIF-1α, full length (from UniProt Q16665 1-826)

- binding [1]: binds
B1: myc-tagged BTG3 (protein, UniProt Q14201 1-252)
chain: T1 sequence
